Data as given in PubChem BioAssay AID504793 (Drosophila RNAi Screening Center, 2011).

- Purpose: 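Genes required for cells to halt at G2/M after double-strand DNA breaks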 (primary screen)
- Cell system: Drosophila S2R+ cells
- Reagents: long dsRNA against Drosophila genes, about 0.25 µg dsRNA per well
- Timing: 4 days of dsRNA, then 4 hours of drug before read-out
- Challenge: doxorubicin 0.5 µM for 4 hours to cause double-strand breaks, in cells also given a low, harmless dose of dsRNA against nbs to sensitise the assay
- Measurement: 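Mitotic index as the number of phospho-histone H3-positive cells in each well following doxorubicin, given as raw counts without normalisation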
- Direction: mitotic cells: higher = more cells in mitosis, weaker G2 arrest
- Call rule: 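Genes are called active only when high mitotic counts were reproduced with independent dsRNAs and mitosis was checked for delay without damage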
- Calls: active = confirmed in follow-up tests; inactive = not confirmed
The deposit covers about 23,000 reagents; below is an unselected part of those that have a named target and a result. In the full data, 62 (0.27%) were called active. 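Calls come from follow-up tests whose scores are not deposited, so confirmed genes may have low counts here; counts are not normalised per plate.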 The raw values are shown without normalisation.

| gene | amplicon | mitotic cells, replicate 1 | mitotic cells, replicate 2 | Call |
| --- | --- | --- | --- | --- |
| CG31924 | DRSC00689 | 5 | – | inactive |
| djl | DRSC12578 | 4 | – | inactive |
| djl | DRSC25609 | 6 | – | inactive |
| Sf3b2 | DRSC00619 | 2 | – | inactive |
| ND-42 | DRSC16754 | 10 | – | inactive |
| ND-42 | DRSC26843 | 7 | – | inactive |
| aurA | DRSC16905 | 8 | – | inactive |
| aurA | DRSC27171 | 6 | – | inactive |
| Vsx2 | DRSC18088 | 7 | 12 | inactive |
| Vsx2 | DRSC23089 | 14 | – | inactive |
| Vsx2 | DRSC23273 | 15 | – | inactive |
| pkm | DRSC19674 | – | – | inactive |
| pkm | DRSC29050 | 6 | – | inactive |
| CG5921 | DRSC17431 | 20 | – | inactive |
| CG5921 | DRSC18390 | 8 | – | inactive |
| CG5921 | DRSC27493 | 5 | – | inactive |
| orb | DRSC23148 | 15 | – | inactive |
| CG10597 | DRSC19357 | 6 | 10 | inactive |
| CG10597 | DRSC25101 | 5 | – | inactive |
| Cpr76Bb | DRSC11061 | 4 | – | inactive |
| Cpr76Bb | DRSC22870 | 9 | – | inactive |
| Cpr76Bb | DRSC25530 | 4 | – | inactive |
| CG6576 | DRSC10663 | 4 | – | inactive |
| CG6576 | DRSC28084 | 7 | – | inactive |
| CG12917 | DRSC06231 | 4 | – | inactive |
| TFAM | DRSC15552 | 6 | – | inactive |
| TFAM | DRSC26903 | 5 | – | inactive |
| CG13133 | DRSC02230 | 4 | – | inactive |
| ste24a | DRSC07314 | 3 | – | inactive |
| ste24a | DRSC26491 | 8 | – | inactive |
| topi | DRSC16431 | 13 | – | inactive |
| CG15186 | DRSC12566 | 8 | – | inactive |
| CG15186 | DRSC26271 | 5 | – | inactive |
| Pgd | DRSC18697 | 17 | – | inactive |
| Pgd | DRSC39148 | 14 | – | inactive |
| Pgant6 | DRSC08552 | 4 | – | inactive |
| Pgant6 | DRSC26927 | 5 | – | inactive |
| Ir56d | DRSC06590 | 7 | – | inactive |
| Ir56d | DRSC28383 | 4 | – | inactive |
| Cep135 | DRSC09345 | 6 | – | inactive |
| Cep135 | DRSC10244 | 4 | – | inactive |
| GAPcenA | DRSC10771 | 8 | – | inactive |
| CG3348 | DRSC15480 | 14 | – | inactive |
| dor | DRSC18765 | 7 | – | inactive |
| dor | DRSC27554 | 5 | – | inactive |
